Measured values published in the supplement of paper PMC10849652.
Some of the results follow.

Sequences of proteins named here, by UniProt entry; tags and fusion partners are left off. A change or cut given only in a name is not applied to a line headed by its entry.
UniProt P34932: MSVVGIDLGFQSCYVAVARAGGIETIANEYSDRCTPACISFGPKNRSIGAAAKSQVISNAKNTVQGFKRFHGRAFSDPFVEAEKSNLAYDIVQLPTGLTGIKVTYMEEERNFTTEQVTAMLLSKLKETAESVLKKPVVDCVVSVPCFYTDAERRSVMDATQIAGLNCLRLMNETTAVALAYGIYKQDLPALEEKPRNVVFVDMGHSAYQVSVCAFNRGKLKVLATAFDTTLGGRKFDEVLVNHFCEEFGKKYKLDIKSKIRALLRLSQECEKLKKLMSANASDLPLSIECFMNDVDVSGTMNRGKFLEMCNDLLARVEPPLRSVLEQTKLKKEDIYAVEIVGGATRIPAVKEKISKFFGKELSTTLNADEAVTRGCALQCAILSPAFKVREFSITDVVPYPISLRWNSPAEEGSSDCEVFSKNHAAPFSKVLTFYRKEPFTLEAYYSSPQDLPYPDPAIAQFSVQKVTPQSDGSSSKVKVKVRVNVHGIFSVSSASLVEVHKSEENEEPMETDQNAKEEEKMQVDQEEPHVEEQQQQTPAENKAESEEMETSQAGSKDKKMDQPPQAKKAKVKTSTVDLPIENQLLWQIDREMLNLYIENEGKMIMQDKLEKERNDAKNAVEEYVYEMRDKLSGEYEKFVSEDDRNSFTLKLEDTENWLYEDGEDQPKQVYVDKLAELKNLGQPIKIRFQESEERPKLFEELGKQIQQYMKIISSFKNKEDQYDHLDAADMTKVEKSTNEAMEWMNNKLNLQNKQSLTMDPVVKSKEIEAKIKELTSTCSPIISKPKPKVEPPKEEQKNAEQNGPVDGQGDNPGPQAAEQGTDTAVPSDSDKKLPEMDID
UniProt P14735, whole entry, looked up: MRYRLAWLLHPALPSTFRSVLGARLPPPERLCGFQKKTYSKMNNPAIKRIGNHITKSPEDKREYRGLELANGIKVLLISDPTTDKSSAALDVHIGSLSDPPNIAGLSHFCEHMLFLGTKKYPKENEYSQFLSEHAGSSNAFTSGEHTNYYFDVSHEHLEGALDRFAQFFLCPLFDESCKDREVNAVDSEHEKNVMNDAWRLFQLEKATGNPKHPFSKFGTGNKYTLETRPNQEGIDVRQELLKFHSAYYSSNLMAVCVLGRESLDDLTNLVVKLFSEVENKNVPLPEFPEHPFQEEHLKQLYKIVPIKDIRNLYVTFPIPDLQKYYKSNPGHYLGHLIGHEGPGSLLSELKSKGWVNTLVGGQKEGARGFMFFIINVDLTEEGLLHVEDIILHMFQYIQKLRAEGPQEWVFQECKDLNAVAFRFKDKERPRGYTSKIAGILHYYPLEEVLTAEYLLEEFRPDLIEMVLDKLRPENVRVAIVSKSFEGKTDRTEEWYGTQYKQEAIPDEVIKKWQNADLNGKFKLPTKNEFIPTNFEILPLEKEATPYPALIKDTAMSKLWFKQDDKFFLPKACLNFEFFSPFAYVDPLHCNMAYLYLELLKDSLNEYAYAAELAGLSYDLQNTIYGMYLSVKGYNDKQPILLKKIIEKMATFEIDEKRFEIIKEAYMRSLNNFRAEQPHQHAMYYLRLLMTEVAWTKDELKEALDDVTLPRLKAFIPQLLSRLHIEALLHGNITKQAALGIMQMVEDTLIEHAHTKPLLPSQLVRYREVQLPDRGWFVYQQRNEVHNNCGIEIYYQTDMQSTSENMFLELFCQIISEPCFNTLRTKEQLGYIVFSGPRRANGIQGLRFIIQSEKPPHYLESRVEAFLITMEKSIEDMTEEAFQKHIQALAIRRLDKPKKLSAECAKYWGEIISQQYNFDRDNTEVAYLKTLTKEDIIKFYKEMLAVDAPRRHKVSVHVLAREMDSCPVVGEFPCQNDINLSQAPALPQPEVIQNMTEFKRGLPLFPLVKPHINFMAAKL
UniProt Q01581: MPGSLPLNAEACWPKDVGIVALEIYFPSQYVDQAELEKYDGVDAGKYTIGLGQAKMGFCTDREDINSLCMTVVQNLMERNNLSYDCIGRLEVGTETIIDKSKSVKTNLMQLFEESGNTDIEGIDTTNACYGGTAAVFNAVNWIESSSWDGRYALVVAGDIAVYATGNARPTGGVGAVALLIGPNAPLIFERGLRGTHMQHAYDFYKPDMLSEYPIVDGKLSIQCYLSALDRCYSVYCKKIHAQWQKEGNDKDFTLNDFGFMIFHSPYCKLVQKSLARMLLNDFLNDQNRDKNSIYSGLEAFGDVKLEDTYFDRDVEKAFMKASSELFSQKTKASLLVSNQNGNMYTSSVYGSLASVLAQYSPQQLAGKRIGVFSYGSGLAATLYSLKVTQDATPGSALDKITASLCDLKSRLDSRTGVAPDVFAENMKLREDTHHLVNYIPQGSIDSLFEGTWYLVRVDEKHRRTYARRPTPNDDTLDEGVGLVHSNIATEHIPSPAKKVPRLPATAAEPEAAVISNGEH
UniProt Q58FG1, whole entry, looked up: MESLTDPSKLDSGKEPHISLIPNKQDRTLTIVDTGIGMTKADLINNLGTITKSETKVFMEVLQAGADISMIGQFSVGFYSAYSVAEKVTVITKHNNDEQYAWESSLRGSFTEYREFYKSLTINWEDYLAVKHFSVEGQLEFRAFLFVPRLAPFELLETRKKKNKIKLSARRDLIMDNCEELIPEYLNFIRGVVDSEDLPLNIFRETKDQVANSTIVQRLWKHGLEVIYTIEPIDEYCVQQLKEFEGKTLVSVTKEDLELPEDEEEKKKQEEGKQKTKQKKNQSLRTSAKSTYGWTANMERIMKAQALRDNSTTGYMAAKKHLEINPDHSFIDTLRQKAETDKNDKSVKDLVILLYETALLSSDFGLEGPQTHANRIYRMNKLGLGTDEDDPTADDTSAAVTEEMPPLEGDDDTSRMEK
UniProt P38646: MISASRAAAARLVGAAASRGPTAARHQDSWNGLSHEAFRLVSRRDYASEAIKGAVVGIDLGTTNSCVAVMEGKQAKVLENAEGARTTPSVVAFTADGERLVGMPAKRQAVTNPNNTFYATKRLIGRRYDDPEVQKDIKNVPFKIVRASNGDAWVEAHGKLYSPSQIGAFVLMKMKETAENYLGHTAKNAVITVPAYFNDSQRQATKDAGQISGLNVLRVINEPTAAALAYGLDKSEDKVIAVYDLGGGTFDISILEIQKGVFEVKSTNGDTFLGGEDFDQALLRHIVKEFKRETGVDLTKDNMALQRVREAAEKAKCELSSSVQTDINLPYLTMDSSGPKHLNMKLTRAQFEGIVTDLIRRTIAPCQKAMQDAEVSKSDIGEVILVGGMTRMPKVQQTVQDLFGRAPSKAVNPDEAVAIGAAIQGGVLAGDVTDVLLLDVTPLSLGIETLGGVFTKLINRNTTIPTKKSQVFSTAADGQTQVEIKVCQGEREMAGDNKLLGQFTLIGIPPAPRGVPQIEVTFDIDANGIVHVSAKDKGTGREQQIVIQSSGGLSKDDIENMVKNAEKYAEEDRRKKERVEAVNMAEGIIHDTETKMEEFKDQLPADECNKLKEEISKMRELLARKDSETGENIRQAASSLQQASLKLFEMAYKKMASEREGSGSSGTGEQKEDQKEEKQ
UniProt P09651: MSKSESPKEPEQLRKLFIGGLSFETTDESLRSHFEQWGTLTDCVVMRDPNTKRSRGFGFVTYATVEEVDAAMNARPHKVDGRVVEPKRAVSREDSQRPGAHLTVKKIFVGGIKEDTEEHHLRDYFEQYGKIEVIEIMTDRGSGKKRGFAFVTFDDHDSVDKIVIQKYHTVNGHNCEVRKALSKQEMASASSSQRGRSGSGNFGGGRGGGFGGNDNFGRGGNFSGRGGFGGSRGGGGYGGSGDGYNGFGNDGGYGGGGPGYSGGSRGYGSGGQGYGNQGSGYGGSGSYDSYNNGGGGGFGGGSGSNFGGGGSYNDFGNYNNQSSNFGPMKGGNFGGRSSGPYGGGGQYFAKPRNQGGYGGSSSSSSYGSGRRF
UniProt O43719: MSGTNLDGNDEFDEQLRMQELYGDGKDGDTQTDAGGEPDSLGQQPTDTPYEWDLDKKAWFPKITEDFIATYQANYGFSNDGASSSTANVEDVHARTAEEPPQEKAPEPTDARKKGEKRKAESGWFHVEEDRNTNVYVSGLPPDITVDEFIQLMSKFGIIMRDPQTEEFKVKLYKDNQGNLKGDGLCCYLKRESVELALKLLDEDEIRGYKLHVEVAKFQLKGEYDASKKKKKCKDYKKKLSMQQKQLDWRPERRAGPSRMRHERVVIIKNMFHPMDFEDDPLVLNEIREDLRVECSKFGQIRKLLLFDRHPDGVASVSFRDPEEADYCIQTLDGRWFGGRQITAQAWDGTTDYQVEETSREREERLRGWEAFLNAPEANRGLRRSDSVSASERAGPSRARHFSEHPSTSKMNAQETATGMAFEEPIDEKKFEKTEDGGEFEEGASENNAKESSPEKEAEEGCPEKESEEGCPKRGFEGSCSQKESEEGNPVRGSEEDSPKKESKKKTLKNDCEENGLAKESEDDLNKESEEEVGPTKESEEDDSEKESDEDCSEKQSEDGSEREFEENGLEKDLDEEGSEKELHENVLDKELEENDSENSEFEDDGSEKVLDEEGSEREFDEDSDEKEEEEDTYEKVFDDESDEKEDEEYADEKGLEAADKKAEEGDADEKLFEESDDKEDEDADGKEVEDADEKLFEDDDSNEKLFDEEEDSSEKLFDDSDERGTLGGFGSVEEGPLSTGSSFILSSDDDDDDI
UniProt P00492: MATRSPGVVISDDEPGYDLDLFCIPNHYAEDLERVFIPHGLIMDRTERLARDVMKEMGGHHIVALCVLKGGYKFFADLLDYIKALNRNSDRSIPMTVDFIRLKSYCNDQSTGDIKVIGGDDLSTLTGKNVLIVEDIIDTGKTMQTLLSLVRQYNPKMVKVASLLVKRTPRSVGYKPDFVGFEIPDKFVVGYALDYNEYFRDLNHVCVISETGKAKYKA
UniProt Q9BTY7: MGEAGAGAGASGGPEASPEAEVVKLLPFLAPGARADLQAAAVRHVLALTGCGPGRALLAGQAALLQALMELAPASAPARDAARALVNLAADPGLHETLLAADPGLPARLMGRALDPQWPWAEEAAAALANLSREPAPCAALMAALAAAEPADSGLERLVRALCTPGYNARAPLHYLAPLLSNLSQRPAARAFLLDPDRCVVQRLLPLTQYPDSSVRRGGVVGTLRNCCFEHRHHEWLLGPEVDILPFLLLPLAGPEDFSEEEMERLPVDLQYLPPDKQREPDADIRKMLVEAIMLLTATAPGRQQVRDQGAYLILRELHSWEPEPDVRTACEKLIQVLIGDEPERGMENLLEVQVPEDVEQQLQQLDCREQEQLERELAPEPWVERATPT
UniProt Q92506: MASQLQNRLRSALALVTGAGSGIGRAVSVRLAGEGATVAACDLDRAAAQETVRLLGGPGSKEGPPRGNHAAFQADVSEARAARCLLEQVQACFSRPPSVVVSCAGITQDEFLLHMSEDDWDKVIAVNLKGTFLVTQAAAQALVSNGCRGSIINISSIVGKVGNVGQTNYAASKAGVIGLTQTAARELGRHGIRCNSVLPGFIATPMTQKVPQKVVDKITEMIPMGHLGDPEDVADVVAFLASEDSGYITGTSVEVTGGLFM
UniProt P61604, whole entry, looked up: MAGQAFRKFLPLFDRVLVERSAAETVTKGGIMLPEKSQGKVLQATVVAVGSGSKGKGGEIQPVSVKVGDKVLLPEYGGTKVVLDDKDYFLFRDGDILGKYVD
UniProt Q2TB90: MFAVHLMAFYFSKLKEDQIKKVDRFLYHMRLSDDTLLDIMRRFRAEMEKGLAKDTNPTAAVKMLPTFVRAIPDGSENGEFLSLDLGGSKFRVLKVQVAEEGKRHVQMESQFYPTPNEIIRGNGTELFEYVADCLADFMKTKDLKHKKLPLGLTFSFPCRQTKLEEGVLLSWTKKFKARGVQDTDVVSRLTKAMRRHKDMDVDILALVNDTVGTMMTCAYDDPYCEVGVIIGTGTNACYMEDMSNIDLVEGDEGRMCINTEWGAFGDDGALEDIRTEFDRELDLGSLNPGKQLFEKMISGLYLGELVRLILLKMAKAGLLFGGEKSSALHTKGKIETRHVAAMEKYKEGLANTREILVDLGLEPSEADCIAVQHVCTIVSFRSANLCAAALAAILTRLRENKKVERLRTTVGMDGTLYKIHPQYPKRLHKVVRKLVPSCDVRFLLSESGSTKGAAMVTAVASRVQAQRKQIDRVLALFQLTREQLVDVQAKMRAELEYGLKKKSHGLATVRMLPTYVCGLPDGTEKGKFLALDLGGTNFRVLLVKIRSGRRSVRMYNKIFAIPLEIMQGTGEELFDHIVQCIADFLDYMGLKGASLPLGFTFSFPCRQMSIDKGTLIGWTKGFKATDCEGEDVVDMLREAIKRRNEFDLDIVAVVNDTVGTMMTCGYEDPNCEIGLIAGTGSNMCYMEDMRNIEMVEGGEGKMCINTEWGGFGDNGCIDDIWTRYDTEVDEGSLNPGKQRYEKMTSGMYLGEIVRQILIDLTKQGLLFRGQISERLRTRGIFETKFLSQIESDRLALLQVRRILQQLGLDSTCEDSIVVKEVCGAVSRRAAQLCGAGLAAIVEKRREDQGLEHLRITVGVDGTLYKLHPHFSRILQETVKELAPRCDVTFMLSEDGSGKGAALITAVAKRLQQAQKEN

Key:
Assay in all cases: log2 fold change, soluble protein after heating vs DMSO (PISA); higher = thermal stabilisation; K562 cells, 10 uM, 30 min; active = over 0.2 and 3.5 SD of the protein, either way, in both replicates (recomputed)
[1] = compound: COC1=CC=C(C=C1)CN2C=CC3=C2C=C(C=C3)C(=O)NO
Outline: (§1)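 For each measurement, 10 μM compound was applied for 30 min to K562 cells at 2×10^6 cells/mL. Aliquots were heated for 3 min across 48°C-58°C, pooled, and extracted in PBS with 0.5% NP-40 at 4°C; the supernatant after 21,000xg for 90 min was soluble protein. This was quantified by TMTpro 16plex LC-MS/MS with channel sums equalised, and thermal stability was reported relative to control samples from duplicates, on a log2 fold-change scale.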

filanesib = compound: CON(C)C(=O)N1N=C(c2cc(F)ccc2F)S[C@@]1(CCCN)c1ccccc1 [filanesib]
Outline: as §1

zotarolimus = compound: CO[C@H]1C[C@@H]2CC[C@@H](C)[C@@](O)(O2)C(=O)C(=O)N2CCCC[C@H]2C(=O)O[C@H]([C@H](C)C[C@@H]2CC[C@H](n3cnnn3)[C@H](OC)C2)CC(=O)[C@H](C)/C=C(\C)[C@@H](O)[C@@H](OC)C(=O)[C@H](C)C[C@H](C)/C=C/C=C/C=C/1C [zotarolimus]
Outline: as §1

idasanutlin = compound: COc1cc(C(=O)O)ccc1NC(=O)[C@@H]1N[C@@H](CC(C)(C)C)[C@](C#N)(c2ccc(Cl)cc2F)[C@H]1c1cccc(Cl)c1F [idasanutlin]
Outline: as §1

alisertib = compound: COc1cc(Nc2ncc3c(n2)-c2ccc(Cl)cc2C(c2c(F)cccc2OC)=NC3)ccc1C(=O)O [alisertib]
Outline: as §1

[2] = compound: COc1cc2nc(-c3cc(F)ccc3O)nc(N[C@@H]3CNC[C@H]3C(C)(C)O)c2cc1OC
Outline: as §1

gefitinib = compound: COc1cc2ncnc(Nc3ccc(F)c(Cl)c3)c2cc1OCCCN1CCOCC1 [gefitinib]
Outline: as §1

[3] = compound: COc1cccc2cc(-c3nc([C@H]4CC[C@H](C(=O)O)CC4)n4ncnc(N)c34)[nH]c12
Outline: as §1

lapatinib = compound: CS(=O)(=O)CCNCc1ccc(-c2ccc3ncnc(Nc4ccc(OCc5cccc(F)c5)c(Cl)c4)c3c2)o1 [lapatinib]
Outline: as §1

pictilisib = compound: CS(=O)(=O)N1CCN(Cc2cc3nc(-c4cccc5[nH]ncc45)nc(N4CCOCC4)c3s2)CC1 [pictilisib]
Outline: as §1

[4] = compound: CS(=O)(=O)c1ccc(-c2cnc(N)c(C(=O)Nc3ccccc3)n2)cc1
Outline: as §1

crizotinib = compound: C[C@@H](Oc1cc(-c2cnn(C3CCNCC3)c2)cnc1N)c1c(Cl)ccc(F)c1Cl [crizotinib]
Outline: as §1

[5] = compound: C[C@@H]1COCCN1C2=NC(=NC(=C2)C3(CC3)S(=O)(=O)C)C4=C5C=CNC5=CC=C4
Outline: as §1

[6] = compound: C[C@H](C1=CC=C(C=C1)C(=O)NC2=C3C=CNC3=NC=C2)N
Outline: as §1

duvelisib = compound: C[C@H](Nc1ncnc2nc[nH]c12)c1cc2cccc(Cl)c2c(=O)n1-c1ccccc1 [duvelisib]
Outline: as §1

gandotinib = compound: Cc1cc(Nc2cc(CN3CCOCC3)c3nc(C)c(Cc4ccc(Cl)cc4F)n3n2)n[nH]1 [gandotinib]
Outline: as §1

tozasertib = compound: Cc1cc(Nc2cc(N3CCN(C)CC3)nc(Sc3ccc(NC(=O)C4CC4)cc3)n2)n[nH]1 [tozasertib]
Outline: as §1

[7] = compound: Cc1cc(SCc2sc(-c3ccc(C(F)(F)F)cc3)nc2C)ccc1OCC(=O)O
Outline: as §1

doramapimod = compound: Cc1ccc(-n2nc(C(C)(C)C)cc2NC(=O)Nc2ccc(OCCN3CCOCC3)c3ccccc23)cc1 [doramapimod]
Outline: as §1

ispinesib = compound: Cc1ccc(C(=O)N(CCCN)[C@@H](c2nc3cc(Cl)ccc3c(=O)n2Cc2ccccc2)C(C)C)cc1 [ispinesib]
Outline: as §1

Measured: log2 fold change

HSPA4 (UniProt P34932)
inactive: [1] 0.026 | filanesib -0.045 | zotarolimus 0.031 | idasanutlin -0.029 | alisertib -0.046 | [2] -0.002 | gefitinib 0.03 | [3] -0.011 | lapatinib -0.009 | pictilisib 0.021 | [4] 0.012 | crizotinib 0.025 | [5] 0.055 | [6] -0.062 | duvelisib 0.013 | gandotinib -0.056 | tozasertib -0.004 | [7] -0.002 | doramapimod -0.031 | ispinesib 0.071

IDE (UniProt P14735)
inactive: [1] 0.015 | filanesib -0.004 | zotarolimus 0.017 | idasanutlin -0.02 | alisertib 0.371 | [2] 0.095 | gefitinib -0.005 | [3] -0.01 | lapatinib -0.027 | pictilisib -0.005 | [4] -0.041 | crizotinib -0.036 | [5] 0.036 | [6] -0.014 | duvelisib 0.048 | gandotinib 0.046 | tozasertib 0.003 | [7] 0.043 | doramapimod -0.024 | ispinesib 0

HMGCS1 (UniProt Q01581)
inactive: [1] 0.026 | filanesib -0.034 | zotarolimus -0.016 | idasanutlin 0.047 | alisertib -0.016 | [2] -0.017 | gefitinib 0.007 | [3] 0.018 | lapatinib 0.007 | pictilisib 0.03 | [4] 0.032 | crizotinib 0.01 | [5] 0.006 | [6] -0.066 | duvelisib 0.039 | gandotinib -0.003 | tozasertib -0.041 | [7] -0.045 | doramapimod -0.015 | ispinesib 0.006

HSP90AA4P (UniProt Q58FG1)
inactive: [1] -0.177 | filanesib 0.051 | zotarolimus -0.083 | idasanutlin 0.032 | alisertib 0.278 | [2] 0.249 | gefitinib -0.012 | [3] 0.117 | lapatinib -0.134 | pictilisib 0.211 | [4] 0.112 | crizotinib 0.06 | [5] 0.06 | [6] 0.228 | duvelisib 0.162 | gandotinib -0.121 | tozasertib -0.06 | [7] -0.042 | doramapimod 0.013 | ispinesib -0.148

HSPA9 (UniProt P38646)
inactive: [1] -0.01 | filanesib -0.071 | zotarolimus -0.026 | idasanutlin 0.008 | alisertib -0.062 | [2] -0.015 | gefitinib 0.005 | [3] 0.01 | lapatinib -0.029 | pictilisib -0.018 | [4] -0.034 | crizotinib -0.01 | [5] 0.015 | [6] -0.022 | duvelisib -0.005 | gandotinib -0.008 | tozasertib -0.008 | [7] -0.04 | doramapimod 0.012 | ispinesib -0.063

HNRNPA1 (UniProt P09651)
inactive: [1] -0.095 | filanesib 0.34 | zotarolimus -0.082 | idasanutlin 0.224 | alisertib -0.095 | [2] 0.02 | gefitinib -0.055 | [3] -0.118 | lapatinib 0.028 | pictilisib -0.018 | [4] -0.091 | crizotinib 0.033 | [5] -0.324 | [6] 0.295 | duvelisib -0.07 | gandotinib 0.184 | tozasertib 0.021 | [7] 0.055 | doramapimod 0.178 | ispinesib -0.142

HSPG2 (UniProt P98160)
inactive: [1] -0.06 | filanesib 0.011 | zotarolimus -0.013 | idasanutlin -0.028 | alisertib -0.007 | [2] -0.03 | gefitinib -0.01 | [3] 0.067 | lapatinib 0.061 | pictilisib 0.115 | [4] -0.059 | crizotinib 0.136 | [5] -0.14 | [6] -0.056 | duvelisib 0.055 | gandotinib 0.037 | tozasertib -0.016 | [7] 0.028 | doramapimod -0.026 | ispinesib -0.066

HTATSF1 (UniProt O43719)
inactive: [1] 0.036 | filanesib -0.024 | zotarolimus 0.028 | idasanutlin -0.017 | alisertib 0.108 | [2] 0.068 | gefitinib 0.055 | [3] -0.008 | lapatinib -0.095 | pictilisib 0.082 | [4] 0.006 | crizotinib 0.012 | [5] 0.01 | [6] -0.02 | duvelisib 0.075 | gandotinib -0.04 | tozasertib 0.125 | [7] 0.082 | doramapimod -0.041 | ispinesib -0.011

HPRT1 (UniProt P00492)
inactive: [1] -0.175 | filanesib -0.027 | zotarolimus -0.005 | idasanutlin -0.035 | alisertib -0.169 | [2] -0.07 | gefitinib -0.019 | [3] 0.035 | lapatinib 0.054 | pictilisib 0 | [4] -0.033 | crizotinib -0.024 | [5] 0.009 | [6] -0.118 | duvelisib 0.004 | gandotinib 0.034 | tozasertib -0.001 | [7] -0.033 | doramapimod -0.053 | ispinesib 0.061

HGH1 (UniProt Q9BTY7)
inactive: [1] -0.046 | filanesib 0.104 | zotarolimus 0.113 | idasanutlin -0.086 | alisertib -0.023 | [2] -0.006 | gefitinib 0.026 | [3] -0.109 | lapatinib 0.022 | pictilisib -0.193 | [4] 0.012 | crizotinib 0.107 | [5] 0 | [6] 0.128 | duvelisib 0.062 | gandotinib -0.007 | tozasertib 0.017 | [7] 0.137 | doramapimod 0.009 | ispinesib -0.197

HSD17B8 (UniProt Q92506)
inactive: [1] -0.077 | filanesib -0.083 | zotarolimus -0.099 | idasanutlin -0.05 | alisertib 0.17 | [2] 0.021 | gefitinib 0.016 | [3] 0.08 | lapatinib 0.026 | pictilisib -0.013 | [4] -0.082 | crizotinib 0.07 | [5] -0.025 | [6] -0.055 | duvelisib 0.039 | gandotinib -0.007 | tozasertib 0.015 | [7] -0.046 | doramapimod -0.022 | ispinesib 0.044

HMMR isoform 3 (UniProt O75330)
inactive: [1] 0.005 | filanesib 0.046 | zotarolimus 0.083 | idasanutlin -0.031 | alisertib -0.002 | [2] -0.004 | gefitinib 0.037 | [3] -0.096 | lapatinib 0.002 | pictilisib -0.011 | [4] -0.004 | crizotinib -0.082 | [5] -0.03 | [6] 0.059 | duvelisib -0.004 | gandotinib -0.085 | tozasertib 0 | [7] 0.088 | doramapimod 0.044 | ispinesib -0.081

HSPE1 (UniProt P61604)
inactive: [1] -0.087 | filanesib -0.089 | zotarolimus -0.03 | idasanutlin -0.009 | alisertib -0.031 | [2] 0.017 | gefitinib 0.038 | [3] 0.065 | lapatinib -0.044 | pictilisib 0.025 | [4] 0.03 | crizotinib 0.111 | [5] 0.04 | [6] -0.075 | duvelisib 0.053 | gandotinib 0.018 | tozasertib -0.027 | [7] -0.031 | doramapimod 0.001 | ispinesib 0.025

HKDC1 (UniProt Q2TB90)
inactive: [1] -0.089 | filanesib -0.052 | zotarolimus -0.018 | idasanutlin -0.089 | alisertib -0.044 | [2] 0.062 | gefitinib 0.026 | [3] 0.113 | lapatinib -0.03 | pictilisib -0.05 | [4] -0.034 | crizotinib 0.058 | [5] 0.066 | [6] -0.082 | duvelisib 0.103 | gandotinib -0.145 | tozasertib 0.022 | [7] -0.014 | doramapimod -0.019 | ispinesib 0.04

HIBADH (UniProt P31937)
inactive: [1] -0.018 | filanesib -0.012 | zotarolimus 0.009 | idasanutlin -0.004 | alisertib -0.04 | [2] 0.001 | gefitinib 0.009 | [3] 0.074 | lapatinib -0.004 | pictilisib -0.007 | [4] -0.02 | crizotinib 0.04 | [5] 0.065 | [6] -0.048 | duvelisib 0.014 | gandotinib -0.011 | tozasertib -0.015 | [7] -0.016 | doramapimod 0.031 | ispinesib 0.023

HNRNPU (UniProt Q00839)
inactive: [1] 0.004 | filanesib 0.267 | zotarolimus -0.024 | idasanutlin 0.172 | alisertib -0.055 | [2] -0.014 | gefitinib -0.045 | [3] -0.064 | lapatinib 0.026 | pictilisib 0.052 | [4] -0.057 | crizotinib -0.234 | [5] -0.003 | [6] 0.161 | duvelisib -0.093 | gandotinib -0.04 | tozasertib 0.012 | [7] 0.111 | doramapimod 0.038 | ispinesib -0.142
